Measured values taken from patent US20070104652A1, “Pharmaceutical spray formulation comprising a hydro fluor alkane and an acylated cyclodextrin” (priority 2003, published 2007).
At least one compound was matched to its structure with a doubt left.

Experiment: Efficacy of peracetylated β cyclodextrin as a solubiliser: spray dried drug-cyclodextrin complex in HFA 227, visual observation
Type: physicochemical
Settings: budesonide C=0.04% w/w, where present

CCCC1O[C@@H]2C[C@H]3[C@@H]4CCC5=CC(=O)C=C[C@]5(C)[C@H]4[C@@H](O)C[C@]3(C)[C@]2(C(=O)CO)O1 (stereo partly shown) [Budesonide]
appearance in HFA 227 (suspension or clear solution): suspensions
